{
  "sequences": {"note": "The chains behind the UniProt entries cited, without tags or fusion partners. Residues count along the entry.", "UniProt P02768, 25-609": "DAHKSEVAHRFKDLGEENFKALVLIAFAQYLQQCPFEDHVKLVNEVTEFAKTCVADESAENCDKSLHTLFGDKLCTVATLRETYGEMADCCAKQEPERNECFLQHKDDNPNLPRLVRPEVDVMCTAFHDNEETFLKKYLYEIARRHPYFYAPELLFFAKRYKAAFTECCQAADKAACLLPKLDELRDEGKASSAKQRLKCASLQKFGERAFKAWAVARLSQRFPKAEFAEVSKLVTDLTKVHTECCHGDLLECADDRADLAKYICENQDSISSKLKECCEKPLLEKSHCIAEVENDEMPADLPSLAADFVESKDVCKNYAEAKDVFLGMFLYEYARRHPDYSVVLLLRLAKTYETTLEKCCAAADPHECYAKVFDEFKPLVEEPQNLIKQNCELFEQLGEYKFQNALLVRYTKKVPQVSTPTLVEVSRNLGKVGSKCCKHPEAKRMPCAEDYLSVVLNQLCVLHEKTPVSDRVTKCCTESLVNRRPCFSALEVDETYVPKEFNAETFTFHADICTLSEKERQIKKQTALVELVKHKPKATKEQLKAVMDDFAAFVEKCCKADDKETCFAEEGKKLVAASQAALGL"},
  "source": "patent US8476081B2",
  "about": "“Assay for evaluating affinity and specificity of ligand-albumin binding” (Janssen Pharmaceutica NV, priority 2009, dated 2013)",
  "key": {"HSA": {"biological_target": "HSA (Homo sapiens, UniProt P02768)", "details": "binding site on HSA from previous reports; cited from earlier work"}, "[1]": {"biological_target": "Human Serum Albumin (HSA) (Homo sapiens, UniProt P02768)", "assay": "ThermoFluor thermal shift assay with human serum albumin", "details": "classified from KD versus IC50 and % displacement of 1,8-ANS", "method": "1× reaction mixture of about 50 μg/mL human serum albumin, about 4 μM 1,8-ANS, about 150 mM NaCl, about 25 mM PIPES, pH 7.2, and about 0.002% Tween®-20 was prepared.\nTo prevent evaporation, about 1 μL of silicone oil was added to the plate using multichannel pipettors.\nThe plates were loaded onto a ThermoFluor® device and heated from about 25° C. to about 95° C. at a ramp-rate of about 1° C. per minute. Fluorescence was measured by continuous illumination with UV light (Hamamatsu LC6) via fiber optic and filtered through a band-pass filter of about 390±10 nm; >6 OD cutoff. Fluorescence emissions were detected by measuring light intensity using a CCD camera (Sensys, Roper Scientific) filtered to detect about 500±25 nm; >6 OD cutoff. This allows for the entire plate to be simultaneously monitored and each sample to be independently monitored. […] The sum of the pixel intensity at a given area of the plate was recorded vs. temperature.\nThe values of Tm, ΔH, yF,Tm, mF, yU,Tm and mU were calculated for each sample according to Equation 9. […] A shift of the fluorescence signal indicates the specificity of compounds to albumin, and the value of IC50 indicates the binding strength to the site I (Equation 11).\nThe compounds and 1× reaction mixture were dispensed and measured for the fluorescence value using the plate-based reader Tecan® Safire II. […]"}},
  "note": "For at least one compound, name, drawing or mass did not settle the structure.",
  "data": [
    {"smiles": "C=CC1=C(C)/C(=C/c2[nH]c(Cc3[nH]c(/C=C4\\NC(=O)C(C)=C4C=C)c(C)c3CCC(=O)O)c(CCC(=O)O)c2C)NC1=O", "note": "[Bilirubin, bilirubin]", "values": [
      {"measurement": "Reported Binding Site", "setting": "HSA", "result": "Site 1"},
      {"measurement": "Type of HSA Binding Interaction", "setting": "[1]", "result": "Type 4"}
    ]}
  ]
}
